From PMC12645137 (Current Neuropharmacology, 2025)

Assay: DPPH antioxidant assay
Assay type: physicochemical
Settings: 517 nm
Protocol: To evaluate the in-vitro antioxidant potential of the synthesized derivatives, a previously reported 1,1 Diphenyl, 2 Picrylhydrazyl (DPPH) assay was utilized. The DPPH solution was prepared by dissolving twenty-four mg DPPH in methanol (100 ml). Test sample solutions in various concentrations (62.50 to 1000 μg/mL) were also prepared. From each dilution, 1 ml sample solution was taken to which 1 ml solution of DPPH was added. The solution mixture was incubated at 23°C for 30 minutes in the dark and then subjected to a UV-visible spectrophotometer to note the absorbance at 517 nm. The absorbance values of all samples were taken in triplicate. Ascorbic acid served as positive control, while negative control only contained a solution of DPPH having no test samples. The % free radical scavenging potential of our compounds was determined by the given formula.
% free radical scavenging activity = [drawing 2] x100
X is the control absorbance, whereas X1 is the absorbance of the test sample.

Structure (SMILES) | Absorbance (DPPH) (62.5 µg/ml) | Absorbance (DPPH) (125 µg/ml) | Absorbance (DPPH) (250 µg/ml) | Absorbance (DPPH) (500 µg/ml) | Absorbance (DPPH) (1000 µg/ml)
COc1ccc(C/N=C(/C)[C@H]2CC[C@H]3[C@@H]4CCC5=CC(=O)CC[C@]5(C)[C@H]4CC[C@]23C)cc1 [AN1, (8S,9S,10R,13S,14S)-17-((Z)-1-((4-methoxybenzyl)imino)ethyl)-10,13-dimethyl-1,2,6,7,8,9,10,11,12,13,14,15,16,17-tetradecahydro-3H-cyc-lopenta[a]phenanthren-3-one] | 0.325 | 0.242 | 0.224 | 0.178 | 0.124
C/C(=N/Cc1ccc(Cl)cc1)[C@H]1CC[C@H]2[C@@H]3CCC4=CC(=O)CC[C@]4(C)[C@H]3CC[C@]12C [AN4, (8S,9S,10R,13S,14S,17S)-17-((Z)-1-((4-chlorobenzyl)imino)ethyl)-10,13-dimethyl-1,2,6,7,8,9,10,11,12,13,14,15,16,17-tetradecahydro-3H-cyclopenta [a]phenanthren-3-one] | 0.397 | 0.332 | 0.294 | 0.248 | 0.225
COc1ccc(C/N=C(/C)[C@H]2CC[C@H]3[C@@H]4CCC5=CC(=O)CC[C@]5(C)[C@H]4CC[C@]23C)cc1OC [AN3, (8S,9S,10R,13S,14S,17S)-17-((Z)-1-((3,4-dimethoxybenzyl)imino)ethyl)-10,13-dimethyl-1,2,6,7,8,9,10,11,12,13,14,15,16,17-tetradecahydro-3H-cyclo-penta[a]phenanthren-3-one] | 0.342 | 0.322 | 0.290 | 0.251 | 0.207
C/C(=N/Cc1ccccc1)[C@H]1CC[C@H]2[C@@H]3CCC4=CC(=O)CC[C@]4(C)[C@H]3CC[C@]12C [AN5, (8S,9S,10R,13S,14S)-17-((Z)-1-(benzylimino)ethyl)-10,13-dimethyl-1,2,6,7,8,9,10,11, 12,13,14,15,16,17-tetradecahydro-3H cyclopenta[a]phenan-thren-3-one] | 0.357 | 0.321 | – | 0.243 | 0.201
O=C1O[C@H]([C@@H](O)CO)C(O)=C1O [Ascorbic Acid, Ascorbic acid, reference compound] | 0.241 | 0.215 | 0.190 | 0.104 | 0.066
C/C(=N/Cc1ccc(C)cc1)[C@H]1CC[C@H]2[C@@H]3CCC4=CC(=O)CC[C@]4(C)[C@H]3CC[C@]12C [AN2, (8S,9S,10R,13S,14S)-17-((Z)-1-((4-methylbenzyl)imino)ethyl)-10,13-dimethyl-1,2,6,7,8,9,10,11,12,13,14,15,16,17-tetradecahydro-3H-cyc-lopenta[a]phenanthren-3-one] | 0.331 | 0.318 | 0.256 | 0.252 | 0.213
